# Primary screen of a compound library

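Whole-cell assay for inhibitors of Mycobacterium tuberculosis growth, labelled Cornell in the record; the read-out is not stated. The concentration is filed as 10 mM, unlikely as a test dose, so the dose is not known. Higher means stronger inhibition (inferred from two other growth screens of the library). Of about 53,000 compounds tested this way, about 900 (1.7%) reached 50% or more in at least one test.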

The filed quantity is “Percent Effect” (%).
How 0% and 100% were set is not recorded. Most values in the screen are low, and negative values occur.
Compounds were drawn at random from those tested, without regard to their results.

structure	percent effect
Cc1cnc(CNC(=O)CC2CCc3ccccc32)cn1 (stereo unspecified)	13.81
O=C(NC1CCCC1)N1CCCCC1c1nc(C2CC2)no1 (stereo unspecified)	6.696
COCCN(C)c1nc(-c2ccncc2)nc2c1CCN(C(C)=O)C2	-4.008
O=C(Nc1ccc(F)cc1)C1CCc2ccccc2N1 (stereo unspecified)	26.24
CCCNC(=O)COc1ccc(C)cn1	2.675
CN(Cc1ccc(F)cc1)CC1(O)CCN(C(=O)c2ccccc2)C1 (stereo unspecified)	-1.782
COCCNC(=O)c1ccc2c(=O)n3c(nc2c1)CCCC3	5.851
CN(C)C(=O)COCC1CN(Cc2ccoc2)Cc2nnn(C)c21 (stereo unspecified)	-41.73
COc1cnc(N2C[C@@H](CN3CCOCC3)C[C@H](CO)C2)nc1	-4.912
CCCc1cc(NCCn2cccn2)n2nccc2n1	2.143
CCS(=O)(=O)Nc1cnn(Cc2cccc(Cl)c2)c1	-14.58
COc1cccc(-c2cnc(C3CCNCC3)cn2)c1	-23.98
Cc1cccc(COc2ccc(C(C)N)cc2)c1.Cl (stereo unspecified)	21.96
CCN1CC(C(=O)NCCc2csc(-c3ccncc3)n2)CCC1=O (stereo unspecified)	8.323
O=C(NCCN1CCCCC1)c1cccc(Cl)c1Cl	28.39
Cc1c(CN2CC[C@@H](N3CCC(O)CC3)[C@H](O)C2)[nH]c2ccc(F)cc12	-20.32
c1cc(CN2CCOC(Cn3cccn3)C2)c2c(c1)OCCO2 (stereo unspecified)	-8.354
CC1c2ncc(CNC(=O)C3CC3)n2CCN1Cc1ccncc1.O=C(O)C(F)(F)F.O=C(O)C(F)(F)F (stereo unspecified)	39.03
CC(C)c1nn(C)c(Cl)c1CNCc1ccc2c(c1)OCCO2.Cl	5.479
Nc1nc(N)c2c(n1)OC1(CCN(C(=O)CC3CCNCC3)CC1)C2	-3.535
N#CCCN(Cc1cccnc1)C(=O)c1ccn(-c2ccccc2)n1	18.79
COCc1ncc(CN2CC[C@@H](NC(=O)c3cccnc3)[C@H](O)C2)cn1	-46.34
O=C(Nc1cccc(CN2CCOC2=O)c1)N1CCSCC1	5.063
Cc1nn(C)cc1C(=O)NC(CC(C)C)C(=O)Nc1cc[nH]n1 (stereo unspecified)	-4.624
CC(=O)N1CCCn2nc(CNS(=O)(=O)N3CCC(C)CC3)cc2C1	-30.88
N#Cc1c(C2CC2)cc(-c2ccc(O)cc2)nc1N	40.5
CCCn1cc(-c2cc(-c3cc(CC)n[nH]3)c(C#N)c(N)n2)c(C)n1	40.81
O=C(O)C(F)(F)F.O=C(O)C(F)(F)F.O=C(O)C(F)(F)F.[H][C@@]12CN(Cc3cccnc3)CCO[C@]1([H])CN(Cc1ccccc1OC)C2	-45.15
CCn1nc(C)cc1NC(=O)CCn1nc(C)c2ccccc21	18.31
CCOCc1nnc(NCc2cccnc2)o1	6.539
COCCNS(=O)(=O)c1cccc2c1CN(C(=O)c1cnccn1)CC2	7.961
CCCc1nnc(NC2CCN(C3CCCC3)CC2)o1	16.54
Cc1cc(C(=O)N(C)Cc2nc(-c3ccccn3)no2)c(C)o1	20.98
O=C(C1CN(Cc2ccsc2)Cc2ccnn2C1)N1CCCC1.O=C(O)C(F)(F)F.O=C(O)C(F)(F)F (stereo unspecified)	23.58
Cc1nnc(NC(=O)NCc2ccc(N3CCN(C)CC3)nc2)s1	10.48
O=S(=O)(c1ccccc1Cl)N1CCC2(CC1)OCCS2	36.27
CCS(=O)(=O)N1CCC2(CC1)CC(OCC1CC1)CO2 (stereo unspecified)	-22.45
CCCS(=O)(=O)N1CCOC2(CCCN(c3ccccn3)C2)C1.O=C(O)C(F)(F)F (stereo unspecified)	-5.318
Cc1occc1C(=O)N1CCC2(CCN(Cc3ccccn3)C2=O)C1.O=C(O)C(F)(F)F (stereo unspecified)	19.08
Cc1c(C(=O)N2CCOCC2)n(C)c2ccc(Cl)cc12.Cl	45.44
O=C(O)c1cc(-c2ccncc2)cc(S(=O)(=O)N2CCSCC2)c1	-1.266
CCc1nc(C)ncc1C(=O)N1CC(=O)N(C)c2ccccc21	21.17
CSc1ncccc1C(=O)N1CCC2(CC1)OCCCC2O (stereo unspecified)	37.97
COc1cc(C)nc(N2CCN(C(=O)c3cc(Cl)c[nH]3)CC2)n1	11.9
Cc1cc(NC2CCC(=O)N(C)C2)n2nccc2n1 (stereo unspecified)	10.18
Cc1cc(C(=O)N2CCCN(Cc3cnn(C(C)C)c3)CC2)no1	2.9
CC(c1cccc(-c2nccn2CCc2ccccn2)c1)N(C)C (stereo unspecified)	0.2124
O=C(O)C(F)(F)F.[H][C@@]12OCCC[C@]1([H])N(C(=O)c1cnccn1)C[C@H]2OCc1ccncc1	-18.43
Cc1ccc(CNCc2nccn2C)c(OCC2CC2)c1	-0.361
Cc1nc(CCN2CCC(Oc3ccccc3F)CC2)cs1	0.3496
Cc1nc(Nc2ccc(Cl)cn2)sc1C(=O)NCCCN1CCCCC1	30.02
N#Cc1c(F)cccc1N1CCC(NS(=O)(=O)c2cccs2)CC1	-4.654
[H][C@@]12CCN(Cc3cnn(C)c3)C[C@@]1([H])O[C@@H](c1nc(C)c(C)s1)C2	21.2
Cc1cc(NCc2ccccc2)nc2[nH]nc(N)c12	99.95
CCC(CO)NCc1ccc(-c2ccc(F)c(Cl)c2)o1.Cl (stereo unspecified)	48.48
Cn1cccc1C(=O)N1CCN(CC2CC2)c2ncccc2C1	22.12
Cc1nccc(CN2Cc3nccn3CC2c2ccccc2)n1 (stereo unspecified)	-4.199
CCc1nn(C)c(Cl)c1CN1CCC(c2cc(O)nc(C)n2)CC1	0.1974
CCn1ncc2c1C(COC)N(C(=O)c1ccsc1)CC2.O=C(O)C(F)(F)F (stereo unspecified)	-4.178
O=C(O)C1CN(c2cccc(Cl)c2)CCO1 (stereo unspecified)	-18.39
Cl.c1cc(CNCc2ccc3c(c2)CCO3)cc(N2CCOCC2)n1	-14.41
COc1ccc2c(c1)C(C(=O)N(C)CCCc1cnn(C)c1)CC(=O)N2 (stereo unspecified)	35.76
Cc1csc(NC(=O)c2cnc(C3CCCN(C)C3)cn2)n1 (stereo unspecified)	-18.41
O=C(Cn1ccc2sccc2c1=O)NCc1ccc(F)cc1	5.663
O=C(Cc1ccsc1)NC1CCc2c(ccc(=O)n2CC2CC2)C1 (stereo unspecified)	-14.42
Cc1ccc(CN(Cc2c[nH]cn2)C2CC(C)(C)NC(C)(C)C2)o1.O=C(O)CC(O)(CC(=O)O)C(=O)O	7.163
O=C(Nc1nc2c(s1)CN(S(=O)(=O)C1CC1)CC2)C1CC1	-18.8
Cc1nccn1-c1ccc(C(C)NCc2ncc[nH]2)cc1 (stereo unspecified)	7.355
COCc1nnc2n1CCN(Cc1ccoc1)C2.O=C(O)C(F)(F)F	17.17
CC(C)c1cc(-c2nn3c(C(C)C)nnc3s2)[nH]n1	1.161
O=C(O)C(F)(F)F.[H][C@@]12C[C@H](C(=O)N3CCOCC3)[C@@]([H])(CN(c3ncc(CC)cn3)C1)O2	10.32
O=C(CCc1cc(O)no1)N1CCCC(COc2ccccc2F)C1 (stereo unspecified)	0.7754
CCOc1cccc2c1OCC(C(=O)NS(=O)(=O)c1ccc(C)s1)=C2	107.6
O=C(Cn1ccc(=O)[nH]c1=O)Nc1ccccc1F	-4.15
O=C(NCc1csc(Br)c1)Nc1cn[nH]c1	-30.69
Cc1nc(-c2ccncc2)ncc1C(C)NC(=O)CN1CCCCC1 (stereo unspecified)	5.433
COCCSCC(=O)NCc1ccc(N(C)C)cc1	-14.46
CCN(CC)c1ncccc1CNC(=O)c1cnn(CC)c1	24.46
Nc1c(C(=O)C2CCCN(C(=O)C3CC3)C2)cnn1-c1ccc(F)cc1 (stereo unspecified)	2.016
CCc1nc(CN2CCCN(c3ncnc4ccccc34)CC2)no1	-7.576
CNC(=O)COc1cccc(CNC(=O)c2c(C)noc2C)c1	27.23
O=C(O)C(F)(F)F.[H][C@]12C[C@@H](Cn3cncn3)N(C(C)=O)[C@@]1([H])CCN(c1ncc(F)cn1)C2	21.52
CCNc1nnc(SCc2nnc(C(C)(C)C)o2)s1	-13.41

Repeated from the top, 7 entries:

Cc1cnc(CNC(=O)CC2CCc3ccccc32)cn1 (stereo unspecified) gave 13.81%.
O=C(NC1CCCC1)N1CCCCC1c1nc(C2CC2)no1 (stereo unspecified) gave 6.696%.
COCCN(C)c1nc(-c2ccncc2)nc2c1CCN(C(C)=O)C2 gave -4.008%.
O=C(Nc1ccc(F)cc1)C1CCc2ccccc2N1 (stereo unspecified) gave 26.24%.
CCCNC(=O)COc1ccc(C)cn1 gave 2.675%.
CN(Cc1ccc(F)cc1)CC1(O)CCN(C(=O)c2ccccc2)C1 (stereo unspecified) gave -1.782%.
COCCNC(=O)c1ccc2c(=O)n3c(nc2c1)CCCC3 gave 5.851%.

The values are deposited in ChEMBL (CHEMBL3988442, “University of Dundee, Small-Polar-MMV Screening Library” (2021)).